Test results reported in publication PMC10635659.
These are yes or no findings as the source states them, for the method shown. In cells and extracts the contact can be indirect. These calls come from enrichment with a bait or labelling near it, and not all partners need be listed.

Chains of the proteins cited; added tags and fusions are not shown.
UniProt Q8WUY9: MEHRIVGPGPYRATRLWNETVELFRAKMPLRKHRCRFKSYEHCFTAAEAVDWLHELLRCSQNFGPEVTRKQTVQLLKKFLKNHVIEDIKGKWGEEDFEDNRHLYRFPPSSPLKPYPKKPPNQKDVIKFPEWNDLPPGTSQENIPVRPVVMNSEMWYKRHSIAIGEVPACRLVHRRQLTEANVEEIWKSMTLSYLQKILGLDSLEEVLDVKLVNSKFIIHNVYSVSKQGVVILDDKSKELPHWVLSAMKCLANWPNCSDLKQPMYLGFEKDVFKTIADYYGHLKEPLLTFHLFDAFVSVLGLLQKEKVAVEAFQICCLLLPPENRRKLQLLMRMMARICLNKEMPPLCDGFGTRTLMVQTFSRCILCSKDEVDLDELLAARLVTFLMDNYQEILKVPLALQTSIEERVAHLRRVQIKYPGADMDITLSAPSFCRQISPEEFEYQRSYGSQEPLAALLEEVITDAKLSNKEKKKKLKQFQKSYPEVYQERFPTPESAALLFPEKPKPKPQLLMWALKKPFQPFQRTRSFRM
UniProt P45974: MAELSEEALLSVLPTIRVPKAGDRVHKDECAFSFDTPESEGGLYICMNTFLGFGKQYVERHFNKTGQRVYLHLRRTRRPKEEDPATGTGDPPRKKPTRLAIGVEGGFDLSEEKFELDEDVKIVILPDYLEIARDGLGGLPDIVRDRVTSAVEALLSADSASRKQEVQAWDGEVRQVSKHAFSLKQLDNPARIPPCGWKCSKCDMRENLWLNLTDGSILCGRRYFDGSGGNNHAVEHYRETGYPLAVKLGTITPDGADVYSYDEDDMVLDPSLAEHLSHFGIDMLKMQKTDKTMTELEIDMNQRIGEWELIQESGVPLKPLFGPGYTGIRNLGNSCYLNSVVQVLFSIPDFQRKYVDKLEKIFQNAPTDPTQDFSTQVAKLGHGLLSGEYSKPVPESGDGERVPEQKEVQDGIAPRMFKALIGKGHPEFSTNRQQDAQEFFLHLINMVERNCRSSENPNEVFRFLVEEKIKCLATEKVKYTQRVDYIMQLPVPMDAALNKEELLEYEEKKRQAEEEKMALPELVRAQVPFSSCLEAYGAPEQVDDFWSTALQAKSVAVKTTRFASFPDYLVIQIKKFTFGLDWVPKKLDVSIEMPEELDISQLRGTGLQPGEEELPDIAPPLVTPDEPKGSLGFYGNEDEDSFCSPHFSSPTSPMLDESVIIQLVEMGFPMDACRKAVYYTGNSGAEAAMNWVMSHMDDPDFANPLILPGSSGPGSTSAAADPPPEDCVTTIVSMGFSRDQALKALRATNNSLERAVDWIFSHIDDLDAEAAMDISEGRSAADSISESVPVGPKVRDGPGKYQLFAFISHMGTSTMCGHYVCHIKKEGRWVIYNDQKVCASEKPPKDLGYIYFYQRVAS
UniProt P35222: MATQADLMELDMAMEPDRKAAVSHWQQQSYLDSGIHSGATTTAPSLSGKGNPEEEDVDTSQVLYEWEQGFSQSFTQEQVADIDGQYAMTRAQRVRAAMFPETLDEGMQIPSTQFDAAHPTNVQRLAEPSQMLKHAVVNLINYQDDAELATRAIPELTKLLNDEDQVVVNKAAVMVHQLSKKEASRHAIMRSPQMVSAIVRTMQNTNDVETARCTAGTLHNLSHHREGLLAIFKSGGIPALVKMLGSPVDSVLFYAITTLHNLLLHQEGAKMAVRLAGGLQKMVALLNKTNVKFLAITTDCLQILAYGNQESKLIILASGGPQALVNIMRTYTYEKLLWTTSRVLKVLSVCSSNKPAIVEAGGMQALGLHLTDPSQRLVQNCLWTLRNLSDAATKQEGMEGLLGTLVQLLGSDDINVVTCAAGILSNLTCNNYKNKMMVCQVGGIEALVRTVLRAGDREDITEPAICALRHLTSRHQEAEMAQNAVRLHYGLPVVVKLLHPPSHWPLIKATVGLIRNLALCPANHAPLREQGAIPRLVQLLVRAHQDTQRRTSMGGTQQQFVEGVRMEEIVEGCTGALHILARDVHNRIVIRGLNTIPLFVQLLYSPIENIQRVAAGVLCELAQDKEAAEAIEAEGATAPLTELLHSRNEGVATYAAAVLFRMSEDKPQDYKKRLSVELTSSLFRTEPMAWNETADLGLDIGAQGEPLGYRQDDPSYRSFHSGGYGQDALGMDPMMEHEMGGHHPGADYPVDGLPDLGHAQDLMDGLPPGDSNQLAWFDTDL

Molecular target: FLAG-DEPDC1B (DEP domain-containing protein 1B), expressed in HEK-293T cells (human) (UniProt Q8WUY9)
Assay: affinity purification with mass spectrometry; Vector or FLAG-DEPDC1B plasmid transfected into HEK-293T cells; extracted proteins analysed by mass spectrometry (Shanghai Bioprofile); how the bait was isolated is not told

| Substance | binding |
| --- | --- |
| ubiquitin-specific protease 5 (USP5), endogenous in HEK-293T cells (from UniProt P45974 1-858) (enzyme) | binds |
| β-catenin, endogenous in HEK-293T cells (from UniProt P35222 1-781) | binds |
